This note sets out measurements from US20210130454A1.

Protein sequences, listed by entry. Tags and fused reporters are not part of them. Lines headed by an entry give the natural chain unless they say otherwise; changes in a name come on top.
UniProt Q6UXD5: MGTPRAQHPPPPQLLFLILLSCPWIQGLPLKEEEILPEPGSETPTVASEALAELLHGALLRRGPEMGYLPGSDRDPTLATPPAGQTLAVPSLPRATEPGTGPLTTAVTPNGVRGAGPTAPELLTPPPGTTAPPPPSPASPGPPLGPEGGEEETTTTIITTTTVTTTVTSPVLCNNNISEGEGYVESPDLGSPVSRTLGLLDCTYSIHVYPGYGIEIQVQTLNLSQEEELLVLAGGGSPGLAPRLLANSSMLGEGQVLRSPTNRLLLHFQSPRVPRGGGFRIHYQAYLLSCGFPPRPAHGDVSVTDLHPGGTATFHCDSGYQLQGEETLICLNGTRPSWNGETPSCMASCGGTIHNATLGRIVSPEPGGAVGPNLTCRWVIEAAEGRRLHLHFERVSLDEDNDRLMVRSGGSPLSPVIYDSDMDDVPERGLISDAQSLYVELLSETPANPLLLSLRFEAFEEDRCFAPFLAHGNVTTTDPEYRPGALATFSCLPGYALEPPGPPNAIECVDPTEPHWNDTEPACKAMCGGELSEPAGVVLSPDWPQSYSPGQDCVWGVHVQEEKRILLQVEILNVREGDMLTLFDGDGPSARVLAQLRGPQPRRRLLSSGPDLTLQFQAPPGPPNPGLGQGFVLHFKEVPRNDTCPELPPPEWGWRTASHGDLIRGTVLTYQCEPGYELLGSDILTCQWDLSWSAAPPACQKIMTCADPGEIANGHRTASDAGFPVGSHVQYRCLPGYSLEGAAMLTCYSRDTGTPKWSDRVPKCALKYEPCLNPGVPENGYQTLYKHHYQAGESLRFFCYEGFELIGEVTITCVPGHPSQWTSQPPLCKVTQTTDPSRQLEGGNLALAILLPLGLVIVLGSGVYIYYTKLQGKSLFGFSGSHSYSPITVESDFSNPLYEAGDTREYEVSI

These are yes or no findings as the source states them, for the method shown. Some entries that bind do so weakly or less than the wild type.

For the test, the target named is human SEZ6L2 on cells (293-SEZ6L2, HEK 293 cells transfected with human SEZ6L2, and SEZ6L2-expressing tumor cell lines) (human) (UniProt Q6UXD5). The test is described as follows: immunofluorescence and flow cytometry on HEK 293 cells transfected with human SEZ6L2 against untransfected cells.

B1: murine anti-SEZ6L2 antibody mu20C4 (antibody, V domains shown)
VH: DVMLVESGGVLVQPGGSLSLSCAASGFTFTDYYMSWVRQPPGKALEWLALIRNKANGYTTEYSASVKGRFTISRDNSQSILYLQMNALRAEDSATYYCARNGLYGLFAYWGQGTLVTVSA
VL: DIVMTQTAPSIPVTPGESVSISCRSSTSLLESSGKHRLYWFLQRPGQSPQLLIYYMSNLASGVPDRFSGSGSGTDFTLRISRVEAEDFGVYYCMQSLEYPLTFGAGTKLEIK
With B1, the binding entry is given as “binds”.
